Assay results from patent EP2594270A2, “The use of sGC stimulators, sGC activators, alone and combinations with PDE5 inhibitors for the treatment of systemic sclerosis (SSc)” (BIP Patents, priority 2011, dated 2013).
At least one structure is not confirmed: it was looked up by name or label, or the drawing left a doubt.

Test system: human dermal fibroblasts
Test: TGFbeta-induced collagen gene expression and hydroxyproline deposition in human dermal fibroblasts in vitro (Example E)
Assay type: cell-based
Method: The effects of example 1A and vardenafil as standalone and in combination were analyzed in vitro in human dermal fibroblasts in vitro.

CCCc1nc(C)c2c(=O)[nH]c(-c3cc(S(=O)(=O)N4CCN(CC)CC4)ccc3OCC)nn12 [vardenafil, 2-(2-Ethoxy-5-(4-ethylpiperazin-1-yl-1-sulfonyl)phenyl)-5-methyl-7-propyl-3H-imidazo (5,1-f) (1,2,4)triazin-4-one, reference compound]
TGF-induced collagen gene expression: significantly blocked | TGFbeta-induced Hydroxyproline (HP) deposition: significantly blocked
